The list shows a part of the results, in another mix than the full data.

Sequences of proteins named here, by UniProt entry; tags and fusion partners are left off. A change or cut given only in a name is not applied to a line headed by its entry.
UniProt Q9GZR7: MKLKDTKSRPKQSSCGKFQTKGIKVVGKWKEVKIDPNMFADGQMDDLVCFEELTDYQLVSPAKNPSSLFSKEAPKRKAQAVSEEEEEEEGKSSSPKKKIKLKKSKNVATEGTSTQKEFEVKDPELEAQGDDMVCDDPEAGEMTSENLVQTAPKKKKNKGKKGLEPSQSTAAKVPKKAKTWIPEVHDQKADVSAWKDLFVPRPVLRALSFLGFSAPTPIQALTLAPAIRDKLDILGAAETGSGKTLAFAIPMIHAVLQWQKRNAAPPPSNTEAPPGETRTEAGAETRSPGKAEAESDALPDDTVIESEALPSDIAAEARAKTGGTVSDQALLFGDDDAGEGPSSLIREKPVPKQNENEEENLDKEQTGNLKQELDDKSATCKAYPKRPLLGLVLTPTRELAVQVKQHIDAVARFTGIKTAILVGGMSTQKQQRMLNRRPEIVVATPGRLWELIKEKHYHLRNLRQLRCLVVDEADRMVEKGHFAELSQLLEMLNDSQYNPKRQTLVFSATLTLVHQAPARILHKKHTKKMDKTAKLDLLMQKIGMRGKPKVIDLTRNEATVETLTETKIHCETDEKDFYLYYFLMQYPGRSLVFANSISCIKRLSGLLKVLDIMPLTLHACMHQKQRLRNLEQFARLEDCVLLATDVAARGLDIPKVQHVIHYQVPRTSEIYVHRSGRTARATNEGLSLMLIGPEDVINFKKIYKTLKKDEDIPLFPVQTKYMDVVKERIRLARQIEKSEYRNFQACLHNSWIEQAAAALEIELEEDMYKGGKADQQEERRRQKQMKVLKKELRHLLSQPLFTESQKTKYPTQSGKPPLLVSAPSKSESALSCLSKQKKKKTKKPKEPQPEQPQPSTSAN
UniProt Q9BW19: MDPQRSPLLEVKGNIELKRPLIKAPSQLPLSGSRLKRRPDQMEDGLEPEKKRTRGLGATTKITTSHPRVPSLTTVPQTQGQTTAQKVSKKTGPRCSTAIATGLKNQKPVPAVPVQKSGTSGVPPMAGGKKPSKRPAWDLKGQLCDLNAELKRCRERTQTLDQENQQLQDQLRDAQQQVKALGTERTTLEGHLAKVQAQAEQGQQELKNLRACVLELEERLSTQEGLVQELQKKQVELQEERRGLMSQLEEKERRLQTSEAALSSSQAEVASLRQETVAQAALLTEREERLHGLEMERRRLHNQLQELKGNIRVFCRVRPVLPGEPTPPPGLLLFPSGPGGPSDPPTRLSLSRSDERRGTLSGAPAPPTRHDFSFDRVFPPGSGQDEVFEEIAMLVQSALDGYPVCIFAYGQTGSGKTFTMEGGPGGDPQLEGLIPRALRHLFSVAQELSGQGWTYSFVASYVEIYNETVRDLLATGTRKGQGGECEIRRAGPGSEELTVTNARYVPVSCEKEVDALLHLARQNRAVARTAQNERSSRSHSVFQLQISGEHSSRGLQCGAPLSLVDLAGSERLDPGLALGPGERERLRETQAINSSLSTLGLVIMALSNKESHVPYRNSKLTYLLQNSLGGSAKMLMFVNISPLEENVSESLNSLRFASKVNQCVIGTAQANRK
UniProt Q9BXP5: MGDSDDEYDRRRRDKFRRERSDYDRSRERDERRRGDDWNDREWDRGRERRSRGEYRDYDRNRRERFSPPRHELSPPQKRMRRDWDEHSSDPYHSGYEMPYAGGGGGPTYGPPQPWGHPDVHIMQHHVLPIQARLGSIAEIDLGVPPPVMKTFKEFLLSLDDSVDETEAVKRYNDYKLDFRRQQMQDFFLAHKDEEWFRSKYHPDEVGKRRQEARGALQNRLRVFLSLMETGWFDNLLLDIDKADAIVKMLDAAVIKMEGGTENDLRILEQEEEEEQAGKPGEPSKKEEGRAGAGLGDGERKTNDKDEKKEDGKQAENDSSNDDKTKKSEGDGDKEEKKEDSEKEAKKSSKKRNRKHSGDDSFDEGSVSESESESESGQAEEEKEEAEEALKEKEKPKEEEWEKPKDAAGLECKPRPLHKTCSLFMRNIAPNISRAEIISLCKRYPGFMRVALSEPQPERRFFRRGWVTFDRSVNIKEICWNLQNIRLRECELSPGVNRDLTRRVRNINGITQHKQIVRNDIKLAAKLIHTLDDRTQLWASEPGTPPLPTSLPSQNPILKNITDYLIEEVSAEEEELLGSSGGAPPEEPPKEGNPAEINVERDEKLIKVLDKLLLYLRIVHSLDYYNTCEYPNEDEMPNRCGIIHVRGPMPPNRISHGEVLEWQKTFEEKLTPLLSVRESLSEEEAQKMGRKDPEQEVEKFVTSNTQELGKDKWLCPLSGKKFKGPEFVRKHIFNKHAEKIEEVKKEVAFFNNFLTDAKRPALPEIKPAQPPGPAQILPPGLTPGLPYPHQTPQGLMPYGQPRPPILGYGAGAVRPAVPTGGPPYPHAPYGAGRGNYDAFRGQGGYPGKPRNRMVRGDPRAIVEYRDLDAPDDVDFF
UniProt Q9H1A4, whole entry, looked up: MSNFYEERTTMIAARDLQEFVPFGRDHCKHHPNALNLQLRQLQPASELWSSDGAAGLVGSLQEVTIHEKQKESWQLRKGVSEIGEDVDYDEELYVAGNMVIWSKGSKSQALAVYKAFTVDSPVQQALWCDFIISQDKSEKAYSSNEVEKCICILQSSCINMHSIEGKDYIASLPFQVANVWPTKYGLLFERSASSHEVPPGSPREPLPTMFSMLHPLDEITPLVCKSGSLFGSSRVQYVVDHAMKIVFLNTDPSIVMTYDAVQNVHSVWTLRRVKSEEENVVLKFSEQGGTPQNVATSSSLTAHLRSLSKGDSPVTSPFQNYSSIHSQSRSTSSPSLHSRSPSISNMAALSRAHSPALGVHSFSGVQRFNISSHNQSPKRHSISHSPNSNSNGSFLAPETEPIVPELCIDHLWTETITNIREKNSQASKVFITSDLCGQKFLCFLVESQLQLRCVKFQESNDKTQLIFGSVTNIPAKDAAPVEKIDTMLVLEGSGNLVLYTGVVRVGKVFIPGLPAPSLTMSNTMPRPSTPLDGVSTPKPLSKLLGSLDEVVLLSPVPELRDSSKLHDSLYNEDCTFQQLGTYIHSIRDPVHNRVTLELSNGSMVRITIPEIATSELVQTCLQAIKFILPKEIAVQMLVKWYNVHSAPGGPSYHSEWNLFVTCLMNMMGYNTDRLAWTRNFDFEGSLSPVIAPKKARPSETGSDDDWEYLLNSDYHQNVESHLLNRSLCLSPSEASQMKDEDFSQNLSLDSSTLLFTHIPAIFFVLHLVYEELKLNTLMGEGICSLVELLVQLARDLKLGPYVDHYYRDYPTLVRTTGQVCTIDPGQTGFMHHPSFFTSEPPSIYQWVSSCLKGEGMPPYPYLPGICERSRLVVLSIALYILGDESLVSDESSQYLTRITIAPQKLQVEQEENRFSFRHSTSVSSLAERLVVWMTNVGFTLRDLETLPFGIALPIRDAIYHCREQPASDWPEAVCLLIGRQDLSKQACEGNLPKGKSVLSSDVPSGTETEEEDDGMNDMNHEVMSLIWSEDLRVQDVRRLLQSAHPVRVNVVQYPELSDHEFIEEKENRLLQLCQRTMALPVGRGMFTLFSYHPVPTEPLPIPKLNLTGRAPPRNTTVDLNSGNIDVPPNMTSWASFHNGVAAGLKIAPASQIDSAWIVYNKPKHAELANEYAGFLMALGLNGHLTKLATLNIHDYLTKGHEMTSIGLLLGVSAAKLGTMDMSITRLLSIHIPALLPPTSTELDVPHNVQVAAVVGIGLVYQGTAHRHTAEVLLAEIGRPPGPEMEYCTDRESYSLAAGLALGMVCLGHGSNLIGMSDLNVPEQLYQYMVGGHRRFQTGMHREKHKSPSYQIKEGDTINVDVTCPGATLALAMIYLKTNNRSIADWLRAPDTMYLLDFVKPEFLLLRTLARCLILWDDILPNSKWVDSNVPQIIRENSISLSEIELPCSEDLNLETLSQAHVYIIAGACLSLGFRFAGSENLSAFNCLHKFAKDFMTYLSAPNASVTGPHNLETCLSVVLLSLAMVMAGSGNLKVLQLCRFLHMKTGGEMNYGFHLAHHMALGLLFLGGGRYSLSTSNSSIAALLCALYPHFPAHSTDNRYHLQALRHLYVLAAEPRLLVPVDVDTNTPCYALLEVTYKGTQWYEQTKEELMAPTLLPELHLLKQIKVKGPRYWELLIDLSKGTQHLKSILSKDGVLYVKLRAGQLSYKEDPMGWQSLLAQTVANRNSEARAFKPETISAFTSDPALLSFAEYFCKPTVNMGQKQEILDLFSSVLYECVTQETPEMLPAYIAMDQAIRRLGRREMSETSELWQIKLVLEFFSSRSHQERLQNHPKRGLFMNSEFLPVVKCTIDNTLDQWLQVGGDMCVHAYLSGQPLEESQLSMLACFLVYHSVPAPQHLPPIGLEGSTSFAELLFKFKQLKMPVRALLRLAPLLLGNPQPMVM
UniProt Q9H0L4: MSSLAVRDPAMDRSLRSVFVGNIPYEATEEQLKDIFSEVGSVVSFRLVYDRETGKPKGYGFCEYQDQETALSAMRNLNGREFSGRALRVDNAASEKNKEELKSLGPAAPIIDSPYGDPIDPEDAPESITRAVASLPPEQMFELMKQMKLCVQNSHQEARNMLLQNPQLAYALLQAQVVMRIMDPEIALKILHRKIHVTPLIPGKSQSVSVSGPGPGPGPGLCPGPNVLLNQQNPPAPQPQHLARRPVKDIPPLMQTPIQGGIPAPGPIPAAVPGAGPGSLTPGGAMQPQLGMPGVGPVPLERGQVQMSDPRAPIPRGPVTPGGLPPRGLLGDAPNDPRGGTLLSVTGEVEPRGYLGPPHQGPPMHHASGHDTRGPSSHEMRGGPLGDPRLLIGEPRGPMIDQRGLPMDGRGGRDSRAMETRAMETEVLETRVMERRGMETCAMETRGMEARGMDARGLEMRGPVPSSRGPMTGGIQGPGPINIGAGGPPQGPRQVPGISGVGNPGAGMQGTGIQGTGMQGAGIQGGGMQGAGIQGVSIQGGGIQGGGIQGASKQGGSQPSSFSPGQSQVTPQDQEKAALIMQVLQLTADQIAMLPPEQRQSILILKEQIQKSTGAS
UniProt Q9H0G5: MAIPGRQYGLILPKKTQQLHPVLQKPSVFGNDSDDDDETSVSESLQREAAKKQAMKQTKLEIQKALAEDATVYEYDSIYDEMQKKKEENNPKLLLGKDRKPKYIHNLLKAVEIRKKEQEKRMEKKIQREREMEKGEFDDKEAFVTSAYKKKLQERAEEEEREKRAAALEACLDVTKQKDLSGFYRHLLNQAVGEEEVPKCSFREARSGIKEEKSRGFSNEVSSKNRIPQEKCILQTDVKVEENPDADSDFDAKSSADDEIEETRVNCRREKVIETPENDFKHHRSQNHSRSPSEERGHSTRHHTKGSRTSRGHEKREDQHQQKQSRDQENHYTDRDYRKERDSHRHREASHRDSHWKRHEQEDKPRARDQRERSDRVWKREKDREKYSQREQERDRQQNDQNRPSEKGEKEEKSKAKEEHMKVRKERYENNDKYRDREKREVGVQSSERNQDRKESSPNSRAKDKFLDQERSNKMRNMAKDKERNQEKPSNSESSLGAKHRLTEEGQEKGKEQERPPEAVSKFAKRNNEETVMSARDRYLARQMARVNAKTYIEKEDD
UniProt Q9BW62: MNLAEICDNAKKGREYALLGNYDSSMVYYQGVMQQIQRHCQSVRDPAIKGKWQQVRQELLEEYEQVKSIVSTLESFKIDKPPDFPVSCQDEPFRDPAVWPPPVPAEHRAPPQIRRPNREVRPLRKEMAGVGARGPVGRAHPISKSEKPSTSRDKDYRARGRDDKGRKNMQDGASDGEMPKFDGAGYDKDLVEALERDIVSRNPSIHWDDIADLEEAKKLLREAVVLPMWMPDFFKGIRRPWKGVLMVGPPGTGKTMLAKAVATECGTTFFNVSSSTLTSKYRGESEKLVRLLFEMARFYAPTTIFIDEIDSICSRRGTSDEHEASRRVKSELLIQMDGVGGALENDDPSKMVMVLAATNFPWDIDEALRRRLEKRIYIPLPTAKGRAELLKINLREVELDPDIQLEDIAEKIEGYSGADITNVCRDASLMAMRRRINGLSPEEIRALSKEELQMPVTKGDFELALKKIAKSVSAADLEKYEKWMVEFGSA
UniProt Q9GZU8: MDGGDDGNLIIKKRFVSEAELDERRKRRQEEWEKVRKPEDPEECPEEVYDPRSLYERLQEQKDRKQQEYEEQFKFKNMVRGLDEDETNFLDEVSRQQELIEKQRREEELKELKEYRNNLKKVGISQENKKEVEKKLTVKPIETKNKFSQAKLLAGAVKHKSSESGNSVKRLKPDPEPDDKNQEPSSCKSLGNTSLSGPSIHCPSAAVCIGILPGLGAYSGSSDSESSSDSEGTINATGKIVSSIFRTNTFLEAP

Compound in the experiment: COC(=O)C#Cc1ccccc1 [methyl 3-phenylpropiolate]
In words: log2 ratio of iodoacetamide-alkyne labeling of the cysteine site, DMSO over compound (competition); higher = stronger covalent engagement of the cysteine by the compound, active = 1 or more. Conditions: 500 µM; treatment time 1 h; system: HEK293T cell lysate. Put shortly: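 HEK293T lysate (2 mg/mL) was treated with DMSO or electrophile (500 µM, 1 h, ambient temperature), then iodoacetamide alkyne (1 h), clicked to sCIP-TMT reagents, pooled, trypsin-digested overnight at 37 °C, streptavidin-enriched and acid-eluted. Peptides were run on Orbitrap Eclipse LC-MS/MS with FAIMS and quantified in FragPipe. The log2 competition ratio per cysteine is mean control-channel over mean compound-channel reporter intensity. Duplicate channels and three replicates were used, and cysteines quantified in only one replicate were excluded.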
On to DDX24 C746 (UniProt Q9GZR7), for which the “log2 ratio of iodoacetamide-alkyne labeling” value (“log2 ratio” for short) was inactive: 0.433.
On to UBXN6 C210 (UniProt Q9BZV1), for which the “log2 ratio” value is inactive: -0.245.
Take KIFC1 C509 (UniProt Q9BW19): the “log2 ratio” value was inactive: 0.348.
As to UniProt Q9BXP5_C441, the “log2 ratio” value is inactive: 0.00234.
Regarding SLK C358 (UniProt Q9H2G2), the “log2 ratio” value was inactive: 0.34.
ANAPC1 C1412 (UniProt Q9H1A4): the “log2 ratio” value was inactive: 0.0508.
Consider UniProt Q9BTE3_C636, for which the “log2 ratio” value was inactive: 0.285.
As for PAPOLG C604 (UniProt Q9BWT3), the “log2 ratio” value was inactive: 0.433.
Regarding MRPL4 C311 (UniProt Q9BYD3), the “log2 ratio” value was inactive: 0.0294.
For the target RIOK1 C264 (UniProt Q9BRS2), the “log2 ratio” value is inactive: 0.179.
Consider CSTF2T C441 (UniProt Q9H0L4), for which the “log2 ratio” value is inactive: 0.733.
Turning to UBE2O C341 (UniProt Q9C0C9), the “log2 ratio” value was inactive: 0.271.
For the target C20orf27 C156 (UniProt Q9GZN8), the “log2 ratio” value was inactive: -0.296.
As to EGLN1 C201 (UniProt Q9GZT9), the “log2 ratio” value is inactive: 0.094.
For the target UniProt Q9H0G5_C171, the “log2 ratio” value is inactive: 0.165.
With UniProt Q9BTE3_C287, the “log2 ratio” value was inactive: 0.647.
With KIFC1 C663 (UniProt Q9BW19), the “log2 ratio” value is inactive: 0.589.
The figure for DHX36 C234 (UniProt Q9H2U1) is inactive: 0.19.
For the target KATNAL1 C313 (UniProt Q9BW62), the “log2 ratio” value is inactive: -0.227.
On to WDR11 C411 (UniProt Q9BZH6), for which the “log2 ratio” value was inactive: 0.261.
Consider UniProt Q9GZU8_C44, for which the “log2 ratio” value is inactive: 0.13.
Consider SLK C1138 (UniProt Q9H2G2), for which the “log2 ratio” value was inactive: 0.0928.

The values above are taken from the supplement of paper PMC11006884.
